The test concerns the target T1, BRI2 (integral membrane protein 2B) (rat (endogenous in brain)) (UniProt Q5XIE8).
T1 sequence: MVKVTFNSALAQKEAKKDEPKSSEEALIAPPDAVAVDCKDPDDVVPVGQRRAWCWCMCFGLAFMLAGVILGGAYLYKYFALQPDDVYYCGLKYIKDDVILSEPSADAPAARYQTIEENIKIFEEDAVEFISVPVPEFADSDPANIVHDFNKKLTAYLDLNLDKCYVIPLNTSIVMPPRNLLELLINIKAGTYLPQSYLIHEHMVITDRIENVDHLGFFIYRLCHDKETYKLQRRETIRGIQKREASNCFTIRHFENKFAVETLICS
The experiment in a line: affinity purification with mass spectrometry; mouse anti-BRI2 antibody (N-terminal region) on Dynabeads Protein G; pre-cleared rat cerebral cortex, hippocampus and cerebellum lysates (50 mM Tris-HCl pH 8.0, 120 mM NaCl, 4% CHAPS), overnight at 4 °C; co-precipitated proteins identified by nano-HPLC-MS/MS; hits absent from the two mock IPs or with a PSM ratio >= 2.0.

Results are given in words; binding and its absence hold for the method and conditions named. Binding seen in cells or lysates may run through a third protein. A yes stands for co-enrichment or nearness to the bait. Other partners may have been found.

B1: SRC kinase signaling inhibitor 1 (protein, UniProt Q9QXY2 1-1197)
chain: MQPWQCLRRFALAWWERTAEGRARSPREEVGPRDPGGRGEPDPERSSPPMLSADDAEYPREYRTLGGGGSGGSGGRRFSNVGLVHTSERRHTVIAAQSLEALSGLQKADADRKRDAFMDHLKSKYPQHALALRGQQDRMREQQPNYWSFKTRSSRHTQGAQPGLADQAAKLSYASAESLETMSEAELPLGFSRMNRFRQSLPLSRSASQTKLRSPGVLFLQFGEETRRVHITHEVSSLDTLHALIAHMFPQKLTMGMLKSPNTAILIKDEARNVFYELEDVRDIQDRSIIKIYRKEPLYAAFPGSHLTNGDLRREMVYASRESSPTRRLNNLSPASHLASSSPPPGLPSGLPSGLPSGSPSRSRLSYAGGRPPSYAGSPVHHAAERLGGAPTSQGVSPSPSAILERRDVKPDEDLAGKAGGMVLVKGEGLYADPYGLLHEGRLSLAAAAGDPFAYPGAGGLYKRGSVRSLSTYSAAALQSDLEDSLYKAGAGGPLYGDGYGFRLPPSSPQKLADVSAPSGGPPPPHSPYSGPPSRGSPVRQSFRKDSGSSSVFAESPGGKARSTGASTAGAPPSELFPGPGERSLVGFGPPVPAKDTETRERMEAMEKQIASLTGLVQSALLRGSEPETPSEKIEGSNGAATPSAPVCGSGSRSSGATPVSGPPPPAVSSTPAGQPTAVSRLQMQMHLRGLQNSASDLRGQLQQLRKLQLQNQESVRALLKRTEAELSMRVSEAARRQEDPLQRQRTLVEEERLRYLNDEELITQQLNDLEKSVEKIQRDVAHNHRLVPGPELEEKALVLKQLGETLTELKAHFPGLQSKMRVVLRVEVEAVKFLKEEPQRLDGLLKRCRVVTDTLAQIRRQVDEGVWPPPNNLLNQSPKKVAAETDFSKGLDFEIPPPSPPLNLHELSGPAEGTPLTPKSGNPTKGLDAPSKRNMDKAVSVEAAERDWEEKRAALTQYSAKDINRLLEETQAELLKAIPDLDCASKTHPGPTPTPDHKPPKAPHGQKAAPRTEPSGRRGSDELTVPRYRTEKPSKSPPPPPPRRSFPSSHGLTTTRTGEVVVTSKKDSVFIKKAESEELEIQKPQVKLRRAVSEVVRPASTPPIMASAIKDEDDEERIIAELESGGGSVPPMKVVTPGASRLKAAQGPAGSPDKGKHGKQRTEYMRIQAQQQVRVGYQAPRPLEGCTPRLCYMPLS
With B1, the binding result is given as “binds”.

B2: Brain acid soluble protein 1 (protein, UniProt Q05175 1-220)
chain: MGSKLSKKKKGYNVNDEKAKDKDKKAEGAGTEEEGTQKESEPQAAADATEVKESAEEKPKDAADGEAKAEEKEADKAAAKEEAPKAEPEKSEGAAEEQPEPAPAPEQEAAAPGPAAGGEAPKAGEASAESTGAADGAPQEEGEAKKTEAPAAGPEAKSDAAPAASDSKPSTEPAPSSKETPAASEAPSSAAKAPAPAAPAAEPQAEAPVASSEQSVAVKE
On to B2, for which the binding entry was “binds”.

B3: Solute carrier family 12 member 5 (protein, UniProt Q63633 1-1139)
chain: MSRRFTVTSLPPAASAASADPESRRHSVADPRRLPREDVKGDGNPKESSPFINSTDTEKGREYDGRNMALFEEEMDTSPMVSSLLSGLANYTNLPQGSKEHEEAENNEGGKKKPVQAPRMGTFMGVYLPCLQNIFGVILFLRLTWVVGIAGIMESFCMVFICCSCTMLTAISMSAIATNGVVPAGGSYYMISRSLGPEFGGAVGLCFYLGTTFAGAMYILGTIEILLAYLFPAMAIFKAEDASGEAAAMLNNMRVYGTCVLTCMATVVFVGVKYVNKFALVFLGCVILSILAIYAGVIKSAFDPPNFPICLLGNRTLSRHGFDVCAKLAWEGNETVTTRLWGLFCSSRLLNATCDEYFTRNNVTEIQGIPGAASGLIKENLWSSYLTKGVIVERRGMPSVGLADGTPVDMDHPYVFSDMTSYFTLLVGIYFPSVTGIMAGSNRSGDLRDAQKSIPTGTILAIATTSAVYISSVVLFGACIEGVVLRDKFGEAVNGNLVVGTLAWPSPWVIVIGSFFSTCGAGLQSLTGAPRLLQAISRDGIVPFLQVFGHGKANGEPTWALLLTACICEIGILIASLDEVAPILSMFFLMCYMFVNLACAVQTLLRTPNWRPRFRYYHWTLSFLGMSLCLALMFICSWYYALVAMLIAGLIYKYIEYRGAEKEWGDGIRGLSLSAARYALLRLEEGPPHTKNWRPQLLVLVRVDQDQNVVHPQLLSLTSQLKAGKGLTIVGSVLEGTFLDNHPQAQRAEESIRRLMEAEKVKGFCQVVISSNLRDGVSHLIQSGGLGGLQHNTVLVGWPRNWRQKEDHQTWRNFIELVRETTAGHLALLVTKNVSMFPGNPERFSEGSIDVWWIVHDGGMLMLLPFLLRHHKVWRKCKMRIFTVAQMDDNSIQMKKDLTTFLYHLRITAEVEVVEMHESDISAYTYEKTLVMEQRSQILKQMHLTKNEREREIQSITDESRGSIRRKNPANTRLRLNVPEETACDNEEKPEEEVQLIHDQSAPSCPSSSPSPGEEPEGEGETDPEKVHLTWTKDKSAAQKNKGPSPVSSEGIKDFFSMKPEWENLNQSNVRRMHTAVRLNEVIVNKSRDAKLVLLNMPGPPRNRNGDENYMEFLEVLTEQLDRVMLVRGGGREVITIYS
Take B3: the binding result is “binds”.

B4: Sodium- and chloride-dependent GABA transporter 3 (protein, UniProt P31647 1-627)
chain: MTAEQALPLGNGKAAEEARGSEALGGGGGGAAGTREARDKAVHERGHWNNKVEFVLSVAGEIIGLGNVWRFPYLCYKNGGGAFLIPYVVFFICCGIPVFFLETALGQFTSEGGITCWRRVCPLFEGIGYATQVIEAHLNVYYIIILAWAIFYLSNCFTTELPWATCGHEWNTEKCVEFQKLNFSNYSHVSLQNATSPVMEFWERRVLAISDGIEHIGNLRWELALCLLAAWTICYFCIWKGTKSTGKVVYVTATFPYIMLLILLIRGVTLPGASEGIKFYLYPDLSRLSDPQVWVDAGTQIFFSYAICLGCLTALGSYNNYNNNCYRDCIMLCCLNSGTSFVAGFAIFSVLGFMAYEQGVPIAEVAESGPGLAFIAYPKAVTMMPLSPLWATLFFMMLIFLGLDSQFVCVESLVTAVVDMYPKVFRRGYRRELLILALSIVSYFLGLVMLTEGGMYIFQLFDSYAASGMCLLFVAIFECVCIGWVYGSNRFYDNIEDMIGYRPLSLIKWCWKVVTPGICAGIFIFFLVKYKPLKYNNVYTYPAWGYGIGWLMALSSMLCIPLWIFIKLWKTEGTLPEKLQKLTVPSADLKMRGKLGASPRMVTVNDCEAKVKGDGTISAITEKETHF
For B4, the binding result was “binds”.

Values taken from PMC5824958.
